Values from PubChem BioAssay AID1508588 (Peter MacCallum Cancer Centre, 2020)

Assay: 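Genome-wide search for knock-downs that heighten vemurafenib action in melanoma cells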 (primary screen)
Cell system: human WM266.4 melanoma cells (BRAF V600 mutant)
Reagent: siRNA pool against human genes, 40 nM
Duration: 96 h from transfection to read-out
Conditions: vemurafenib 300 nM (about IC25), added 48 h after transfection, for 48 h; comparison arm got DMSO vehicle only
Measurement: 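Cell gain (DAPI nuclei at end minus before drug, mean of two replicates) and medium lactate by absorbance per cell, both as ratio to non-targeting siRNA, also grouped into fold-change classes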
Direction: cell gain with vemurafenib: higher = more cell gain than with non-targeting siRNA; lactate per cell with vemurafenib: higher = more lactate made per cell
Active means: 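Enhancement is called by pairing each knock-down's vehicle-arm and drug-arm fold-change classes for viability or glycolysis; which class combinations qualify is not given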
Calls: active = enhances vemurafenib effect; inactive = no enhancement seen
In all, the deposit lists about 18,000 reagents; below is an unselected part. 790 of them (4.4%) count as active. 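Calls rest on a combination of fold-change classes in drug and vehicle arms, not all shown here.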 Entries without a mark were called inactive.

With TMEM42 (transmembrane protein 42), what does the deposit list?
cell gain with vemurafenib: 1.04; lactate per cell with vemurafenib: 1.06

What is on record for ABTB3 (ankyrin repeat and BTB domain containing 3)?
cell gain with vemurafenib: 0.66; lactate per cell with vemurafenib: 0.72

For ZNF157 (zinc finger protein 157), what does the deposit list?
cell gain with vemurafenib: 0.5; lactate per cell with vemurafenib: 0.74

How did the screen score ABI3 (ABI family member 3)?
cell gain with vemurafenib: 0.51; lactate per cell with vemurafenib: 0.37

With TAS2R13 (taste 2 receptor member 13), how do the results read?
cell gain with vemurafenib: 0.7; lactate per cell with vemurafenib: 0.57

With YARS2 (tyrosyl-tRNA synthetase 2), what does the deposit list?
cell gain with vemurafenib: 0.81; lactate per cell with vemurafenib: 1.85

How did the screen score LEFTY2 (left-right determination factor 2)?
cell gain with vemurafenib: 0.7; lactate per cell with vemurafenib: 1.44

What did the screen give for LLGL2 (LLGL scribble cell polarity complex component 2)?
cell gain with vemurafenib: 0.55; lactate per cell with vemurafenib: 1.28

For PPP2R2A (protein phosphatase 2 regulatory subunit Balpha), what does the deposit list?
cell gain with vemurafenib: 0.33; lactate per cell with vemurafenib: 0.52

Which result is listed for OSCP1?
cell gain with vemurafenib: 0.59; lactate per cell with vemurafenib: 0.97

For CTNND1 (catenin delta 1), how do the results read?
cell gain with vemurafenib: 0.76; lactate per cell with vemurafenib: 1.04

For THEM6 (thioesterase superfamily member 6), how do the results read?
cell gain with vemurafenib: 0.9; lactate per cell with vemurafenib: 0.93

With TRAM2 (translocation associated membrane protein 2), how do the results read?
cell gain with vemurafenib: 0.16; lactate per cell with vemurafenib: 0.68

For RHOA (ras homolog family member A), how do the results read?
cell gain with vemurafenib: 0.26; lactate per cell with vemurafenib: 0.88

With RGP1 (RGP1 partner of RAB6A GEF complex), what does the deposit list?
cell gain with vemurafenib: 0.34; lactate per cell with vemurafenib: 1.96

For STOM (stomatin), what was measured?
cell gain with vemurafenib: 0.69; lactate per cell with vemurafenib: 1.21

How did the screen score SIGIRR (single Ig and TIR domain containing)?
cell gain with vemurafenib: 0.96; lactate per cell with vemurafenib: 0.61

For TMEM140 (transmembrane protein 140), what was measured?
cell gain with vemurafenib: 0.73; lactate per cell with vemurafenib: 0.78

How did the screen score MFNG (MFNG O-fucosylpeptide 3-beta-N-acetylglucosaminyltransferase)?
cell gain with vemurafenib: 0.45; lactate per cell with vemurafenib: 0.57

For BPIFB3 (BPI fold containing family B member 3), how do the results read?
cell gain with vemurafenib: 0.85; lactate per cell with vemurafenib: 0.51

With CTRC (chymotrypsin C), how do the results read?
cell gain with vemurafenib: 0.05; lactate per cell with vemurafenib: 0.76

For BLOC1S6 (biogenesis of lysosomal organelles complex 1 subunit 6), what was measured?
cell gain with vemurafenib: 0.13; lactate per cell with vemurafenib: 3.54

What is on record for GPX2 (glutathione peroxidase 2)?
cell gain with vemurafenib: 0.54; lactate per cell with vemurafenib: 0.58

How did the screen score TUSC3 (tumor suppressor candidate 3)?
cell gain with vemurafenib: 1.19; lactate per cell with vemurafenib: 0.56

Part of the list above, set out differently:
ZNF157 (zinc finger protein 157)
- cell gain with vemurafenib: 0.5
- lactate per cell with vemurafenib: 0.74

ABI3 (ABI family member 3)
- cell gain with vemurafenib: 0.51
- lactate per cell with vemurafenib: 0.37

TAS2R13 (taste 2 receptor member 13)
- cell gain with vemurafenib: 0.7
- lactate per cell with vemurafenib: 0.57

YARS2 (tyrosyl-tRNA synthetase 2)
- cell gain with vemurafenib: 0.81
- lactate per cell with vemurafenib: 1.85

LEFTY2 (left-right determination factor 2)
- cell gain with vemurafenib: 0.7
- lactate per cell with vemurafenib: 1.44

LLGL2 (LLGL scribble cell polarity complex component 2)
- cell gain with vemurafenib: 0.55
- lactate per cell with vemurafenib: 1.28

The list goes on:
With TUBA3D (tubulin alpha 3d), how do the results read?
cell gain with vemurafenib: 0.86; lactate per cell with vemurafenib: 0.49

With AZIN1 (antizyme inhibitor 1), what does the deposit list?
cell gain with vemurafenib: 0.55; lactate per cell with vemurafenib: 0.78

For MARS2 (methionyl-tRNA synthetase 2, mitochondrial), how do the results read?
cell gain with vemurafenib: 0.63; lactate per cell with vemurafenib: 0.57

With RETNLB (resistin like beta), how do the results read?
cell gain with vemurafenib: 0.2; lactate per cell with vemurafenib: 1.25

Which result is listed for MAP3K5 (mitogen-activated protein kinase kinase kinase 5)?
cell gain with vemurafenib: 0.67; lactate per cell with vemurafenib: 0.62

Which result is listed for SHLD2 (shieldin complex subunit 2)?
cell gain with vemurafenib: 0.11; lactate per cell with vemurafenib: 1.46

How did the screen score CCAR1 (cell division cycle and apoptosis regulator 1)?
cell gain with vemurafenib: 0.55 (active); lactate per cell with vemurafenib: -0.05

What is on record for TTC9C (tetratricopeptide repeat domain 9C)?
cell gain with vemurafenib: 0.48; lactate per cell with vemurafenib: 1.4

What is on record for HS1BP3 (HCLS1 binding protein 3)?
cell gain with vemurafenib: 0.73; lactate per cell with vemurafenib: 0.76

For ATP6V1G1 (ATPase H+ transporting V1 subunit G1), what does the deposit list?
cell gain with vemurafenib: 0.88; lactate per cell with vemurafenib: 0.74

For SPANXN2 (SPANX family member N2), what does the deposit list?
cell gain with vemurafenib: 0.8; lactate per cell with vemurafenib: 0.89

With PHB2 (prohibitin 2), how do the results read?
cell gain with vemurafenib: 0.09; lactate per cell with vemurafenib: 2.59

With RNF207 (ring finger protein 207), what was measured?
cell gain with vemurafenib: 0.43; lactate per cell with vemurafenib: 0.66

With GTF2A1 (general transcription factor IIA subunit 1), how do the results read?
cell gain with vemurafenib: 0.77 (active); lactate per cell with vemurafenib: 0.64

With SIX2 (SIX homeobox 2), how do the results read?
cell gain with vemurafenib: 0.44; lactate per cell with vemurafenib: 1.29

For PRELP (proline and arginine rich end leucine rich repeat protein), how do the results read?
cell gain with vemurafenib: 0.05 (active); lactate per cell with vemurafenib: 0.34
